Values from PubChem BioAssay AID1259424 (University of Nebraska Medical Center, 2018).
This is an unselected part of about 14,000 deposited reagents. 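Higher correlation or smaller distance means closer resemblance to KSR1 loss; control wells, including KSR1 knockdowns, recur on many plates.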 Not all columns of the deposit are shown. Not stated in the record: the time to read-out.

Aim: 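Find knockdowns that reproduce the expression shifts seen after KSR1 loss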 (primary screen)
Cell system: human HCT116 colon cancer cells
Knock-down reagent: siRNA pool against human genes, 50 nM
Detection: 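Six signature mRNAs by branched-DNA multiplex assay, scaled to two housekeeping genes and non-targeting median, log2; matched to mean KSR1 knockdown profile by Pearson correlation and euclidean distance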
Reading the numbers: mean correlation with KSR1 profile: higher = expression change more like KSR1 knockdown

gene | mean correlation with KSR1 profile
PUS7L (pseudouridine synthase 7 like) | 0.427
GTPBP1 (GTP binding protein 1) | 0.26
RPL28 (ribosomal protein L28) | 0.178
ALPG (alkaline phosphatase, germ cell) | -0.0999
BRSK2 (BR serine/threonine kinase 2) | 0.705
CNGA4 (cyclic nucleotide gated channel subunit alpha 4) | -0.328
NEBL (nebulette) | -0.12
PSMB3 (proteasome 20S subunit beta 3) | -0.145
ZCCHC8 (zinc finger CCHC-type containing 8) | -0.334
B9D2 (B9 domain containing 2) | 0.629
COX6A2 (cytochrome c oxidase subunit 6A2) | -0.329
ZNF382 (zinc finger protein 382) | 0.856
RBM38 (RNA binding motif protein 38) | 0.427
LILRA4 (leukocyte immunoglobulin like receptor A4) | -0.764
UQCR11 (ubiquinol-cytochrome c reductase, complex III subunit XI) | -0.694
PPP2R5A (protein phosphatase 2 regulatory subunit B'alpha) | -0.543
EMILIN2 (elastin microfibril interfacer 2) | 0.415
PARP9 (poly(ADP-ribose) polymerase family member 9) | 0.358
SIGLEC11 (sialic acid binding Ig like lectin 11) | 0.798
ST6GAL1 (ST6 beta-galactoside alpha-2,6-sialyltransferase 1) | 0.333
SLC20A1 | 0.485
CDH5 (cadherin 5) | 0.681
STAT5A (signal transducer and activator of transcription 5A) | 0.468
GUCA1A (guanylate cyclase activator 1A) | 0.534
CFHR1 (complement factor H related 1) | -0.481
SAGE1 (sarcoma antigen 1) | -0.327
BMP3 (bone morphogenetic protein 3) | 0.114
TRIM5 (tripartite motif containing 5) | 0.716
CAMK1G (calcium/calmodulin dependent protein kinase IG) | -0.323

An excerpt of the results above, for reference:
gene | mean correlation with KSR1 profile
ZNF382 (zinc finger protein 382) | 0.856
RBM38 (RNA binding motif protein 38) | 0.427
LILRA4 (leukocyte immunoglobulin like receptor A4) | -0.764
UQCR11 (ubiquinol-cytochrome c reductase, complex III subunit XI) | -0.694
PPP2R5A (protein phosphatase 2 regulatory subunit B'alpha) | -0.543
EMILIN2 (elastin microfibril interfacer 2) | 0.415
PARP9 (poly(ADP-ribose) polymerase family member 9) | 0.358
SIGLEC11 (sialic acid binding Ig like lectin 11) | 0.798

Continued.
gene | mean correlation with KSR1 profile
ABCB4 (ATP binding cassette subfamily B member 4) | 0.19
RANBP17 (RAN binding protein 17) | -0.461
OVOL1 (ovo like transcriptional repressor 1) | -0.148
EFHD2 (EF-hand domain family member D2) | 0.266
HADH (hydroxyacyl-CoA dehydrogenase) | 0.0787
CDH11 (cadherin 11) | 0.163
ANKRD10 (ankyrin repeat domain 10) | -0.0105
HOMER1 (homer scaffold protein 1) | -0.604
TCF3 (transcription factor 3) | 0.0328
AP3M2 (adaptor related protein complex 3 subunit mu 2) | -0.602
SERPINB8 (serpin family B member 8) | 0.224
KCNJ8 (potassium inwardly rectifying channel subfamily J member 8) | 0.686
MPPE1 (metallophosphoesterase 1) | -0.339
OMD (osteomodulin) | -0.274
KIRREL1 (kirre like nephrin family adhesion molecule 1) | -0.311
DHCR24 (24-dehydrocholesterol reductase) | 0.629
TEX14 (testis expressed 14, intercellular bridge forming factor) | 0.525
OSBPL1A (oxysterol binding protein like 1A) | 0.601
GJA9 (gap junction protein alpha 9) | 0.531
ZFY (zinc finger protein Y-linked) | -0.212
CCDC70 (coiled-coil domain containing 70) | 0.37
